# Test results from the supplement of paper PMC12823440, “Inhibitors supercharge kinase turnover through native proteolytic circuits” (Nature, 2025).
# Chains of the proteins cited; added tags and fusions are not shown. Lines headed by an entry give the natural chain unless they say otherwise; changes in a name come on top.
# UniProt P23458: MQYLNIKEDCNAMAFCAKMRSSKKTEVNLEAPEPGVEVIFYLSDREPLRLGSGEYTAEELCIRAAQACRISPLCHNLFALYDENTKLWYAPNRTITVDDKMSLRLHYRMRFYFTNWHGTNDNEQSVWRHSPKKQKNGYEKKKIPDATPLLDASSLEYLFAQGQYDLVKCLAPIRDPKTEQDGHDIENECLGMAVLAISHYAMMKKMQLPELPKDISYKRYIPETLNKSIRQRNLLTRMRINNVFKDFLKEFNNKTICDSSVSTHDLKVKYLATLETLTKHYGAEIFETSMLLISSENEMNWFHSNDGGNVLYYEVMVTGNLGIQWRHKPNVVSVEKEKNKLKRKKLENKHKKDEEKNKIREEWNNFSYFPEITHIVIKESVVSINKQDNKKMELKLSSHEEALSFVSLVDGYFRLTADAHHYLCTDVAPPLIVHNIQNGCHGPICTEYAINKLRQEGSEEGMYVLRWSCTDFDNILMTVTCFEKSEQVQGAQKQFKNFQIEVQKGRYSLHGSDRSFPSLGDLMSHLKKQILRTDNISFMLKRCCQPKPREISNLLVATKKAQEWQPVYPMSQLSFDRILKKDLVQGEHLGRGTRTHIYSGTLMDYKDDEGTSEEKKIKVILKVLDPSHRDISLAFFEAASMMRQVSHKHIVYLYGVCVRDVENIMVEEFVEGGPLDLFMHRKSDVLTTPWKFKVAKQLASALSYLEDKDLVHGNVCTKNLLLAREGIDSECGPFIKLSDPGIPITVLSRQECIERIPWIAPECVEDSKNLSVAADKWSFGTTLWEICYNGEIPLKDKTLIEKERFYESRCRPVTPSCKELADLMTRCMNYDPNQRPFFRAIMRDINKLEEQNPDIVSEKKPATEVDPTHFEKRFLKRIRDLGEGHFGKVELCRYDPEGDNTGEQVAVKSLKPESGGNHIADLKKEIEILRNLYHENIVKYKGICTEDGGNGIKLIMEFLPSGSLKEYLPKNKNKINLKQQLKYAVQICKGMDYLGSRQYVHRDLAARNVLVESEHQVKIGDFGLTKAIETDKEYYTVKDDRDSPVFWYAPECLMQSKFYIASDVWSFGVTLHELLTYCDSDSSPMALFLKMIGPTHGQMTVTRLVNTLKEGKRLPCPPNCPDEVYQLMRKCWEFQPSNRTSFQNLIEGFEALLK
# UniProt P06239: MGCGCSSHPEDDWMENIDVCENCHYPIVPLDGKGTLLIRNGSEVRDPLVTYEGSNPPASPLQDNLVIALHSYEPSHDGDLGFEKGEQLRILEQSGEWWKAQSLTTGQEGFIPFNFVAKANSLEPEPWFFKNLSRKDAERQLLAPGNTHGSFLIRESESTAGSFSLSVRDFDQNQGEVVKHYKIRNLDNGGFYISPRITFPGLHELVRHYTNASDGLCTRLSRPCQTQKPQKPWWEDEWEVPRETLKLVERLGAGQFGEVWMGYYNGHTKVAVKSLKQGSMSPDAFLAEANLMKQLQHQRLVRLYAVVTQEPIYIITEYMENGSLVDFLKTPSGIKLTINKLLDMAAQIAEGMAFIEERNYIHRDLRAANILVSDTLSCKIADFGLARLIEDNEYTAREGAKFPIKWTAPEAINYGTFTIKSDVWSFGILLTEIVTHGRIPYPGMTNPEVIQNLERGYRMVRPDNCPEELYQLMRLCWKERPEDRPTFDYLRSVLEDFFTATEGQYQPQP
# UniProt P53671: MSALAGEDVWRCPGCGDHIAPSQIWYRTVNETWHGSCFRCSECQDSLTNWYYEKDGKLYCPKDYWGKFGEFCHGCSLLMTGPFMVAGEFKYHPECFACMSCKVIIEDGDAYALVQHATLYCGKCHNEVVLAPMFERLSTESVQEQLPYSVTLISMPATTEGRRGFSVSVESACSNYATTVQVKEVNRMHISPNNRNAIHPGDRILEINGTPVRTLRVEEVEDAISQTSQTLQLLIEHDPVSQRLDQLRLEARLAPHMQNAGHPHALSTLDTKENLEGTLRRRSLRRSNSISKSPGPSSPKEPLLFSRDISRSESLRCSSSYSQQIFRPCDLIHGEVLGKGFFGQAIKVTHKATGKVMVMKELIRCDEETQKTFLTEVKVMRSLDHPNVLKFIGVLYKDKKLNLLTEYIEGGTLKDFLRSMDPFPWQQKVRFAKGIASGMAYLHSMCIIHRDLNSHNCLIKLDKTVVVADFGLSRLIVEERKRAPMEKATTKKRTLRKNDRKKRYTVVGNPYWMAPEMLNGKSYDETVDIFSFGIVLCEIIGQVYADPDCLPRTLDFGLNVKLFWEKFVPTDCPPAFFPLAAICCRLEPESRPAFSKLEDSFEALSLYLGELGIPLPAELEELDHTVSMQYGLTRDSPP
# UniProt Q12851: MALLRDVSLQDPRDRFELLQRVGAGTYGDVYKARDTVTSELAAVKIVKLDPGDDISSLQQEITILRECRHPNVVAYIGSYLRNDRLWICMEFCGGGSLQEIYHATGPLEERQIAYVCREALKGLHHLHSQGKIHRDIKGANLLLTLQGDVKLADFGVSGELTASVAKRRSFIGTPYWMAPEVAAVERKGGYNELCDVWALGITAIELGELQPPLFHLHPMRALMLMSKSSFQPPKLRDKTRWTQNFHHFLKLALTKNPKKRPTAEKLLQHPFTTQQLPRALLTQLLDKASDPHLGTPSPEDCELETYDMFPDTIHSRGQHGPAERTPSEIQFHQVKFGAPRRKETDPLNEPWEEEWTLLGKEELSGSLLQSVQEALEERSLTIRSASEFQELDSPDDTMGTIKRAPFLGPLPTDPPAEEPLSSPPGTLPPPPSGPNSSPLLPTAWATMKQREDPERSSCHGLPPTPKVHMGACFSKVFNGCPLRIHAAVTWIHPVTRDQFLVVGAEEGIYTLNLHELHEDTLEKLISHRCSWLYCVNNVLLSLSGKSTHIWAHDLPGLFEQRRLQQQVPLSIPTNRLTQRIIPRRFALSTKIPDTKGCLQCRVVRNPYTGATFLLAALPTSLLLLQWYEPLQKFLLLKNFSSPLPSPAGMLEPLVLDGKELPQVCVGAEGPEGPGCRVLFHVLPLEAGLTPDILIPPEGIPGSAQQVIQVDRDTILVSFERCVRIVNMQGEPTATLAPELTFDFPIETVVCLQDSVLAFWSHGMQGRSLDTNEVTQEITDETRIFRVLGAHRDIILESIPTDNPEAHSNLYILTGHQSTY
# UniProt P28482, whole entry: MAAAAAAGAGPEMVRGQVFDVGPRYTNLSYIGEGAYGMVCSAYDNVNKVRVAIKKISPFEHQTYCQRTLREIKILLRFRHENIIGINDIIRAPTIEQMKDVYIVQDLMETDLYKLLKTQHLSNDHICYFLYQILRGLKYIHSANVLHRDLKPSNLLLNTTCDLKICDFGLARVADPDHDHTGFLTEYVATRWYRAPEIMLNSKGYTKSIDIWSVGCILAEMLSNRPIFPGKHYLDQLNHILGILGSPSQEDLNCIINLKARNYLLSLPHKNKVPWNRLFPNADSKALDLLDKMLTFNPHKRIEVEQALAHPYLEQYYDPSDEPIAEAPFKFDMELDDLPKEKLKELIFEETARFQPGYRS
# UniProt P49137, whole entry, looked up: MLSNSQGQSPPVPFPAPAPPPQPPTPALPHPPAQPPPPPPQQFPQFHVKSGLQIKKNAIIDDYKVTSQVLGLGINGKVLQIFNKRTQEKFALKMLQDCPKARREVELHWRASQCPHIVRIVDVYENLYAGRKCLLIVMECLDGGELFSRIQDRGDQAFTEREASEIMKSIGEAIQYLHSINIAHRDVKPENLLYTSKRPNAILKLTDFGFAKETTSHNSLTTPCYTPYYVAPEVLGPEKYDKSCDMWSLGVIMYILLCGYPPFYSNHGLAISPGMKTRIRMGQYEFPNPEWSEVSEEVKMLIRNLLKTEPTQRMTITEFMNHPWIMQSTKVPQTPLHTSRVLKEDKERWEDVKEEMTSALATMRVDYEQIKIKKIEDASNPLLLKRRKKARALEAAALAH
# UniProt Q9BUB5: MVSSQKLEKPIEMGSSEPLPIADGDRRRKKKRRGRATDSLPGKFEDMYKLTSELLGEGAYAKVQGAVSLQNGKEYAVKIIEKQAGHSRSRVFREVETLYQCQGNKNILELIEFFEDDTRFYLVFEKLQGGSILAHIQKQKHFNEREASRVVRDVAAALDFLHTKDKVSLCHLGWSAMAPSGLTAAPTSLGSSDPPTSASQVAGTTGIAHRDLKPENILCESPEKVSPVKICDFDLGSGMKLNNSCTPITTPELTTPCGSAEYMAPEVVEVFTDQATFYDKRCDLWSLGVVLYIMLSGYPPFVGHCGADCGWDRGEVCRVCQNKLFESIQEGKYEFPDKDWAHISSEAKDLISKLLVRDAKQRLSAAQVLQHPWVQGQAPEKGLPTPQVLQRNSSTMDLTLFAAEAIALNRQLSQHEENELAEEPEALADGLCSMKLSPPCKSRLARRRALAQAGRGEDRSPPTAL
# UniProt Q16620, whole entry, looked up: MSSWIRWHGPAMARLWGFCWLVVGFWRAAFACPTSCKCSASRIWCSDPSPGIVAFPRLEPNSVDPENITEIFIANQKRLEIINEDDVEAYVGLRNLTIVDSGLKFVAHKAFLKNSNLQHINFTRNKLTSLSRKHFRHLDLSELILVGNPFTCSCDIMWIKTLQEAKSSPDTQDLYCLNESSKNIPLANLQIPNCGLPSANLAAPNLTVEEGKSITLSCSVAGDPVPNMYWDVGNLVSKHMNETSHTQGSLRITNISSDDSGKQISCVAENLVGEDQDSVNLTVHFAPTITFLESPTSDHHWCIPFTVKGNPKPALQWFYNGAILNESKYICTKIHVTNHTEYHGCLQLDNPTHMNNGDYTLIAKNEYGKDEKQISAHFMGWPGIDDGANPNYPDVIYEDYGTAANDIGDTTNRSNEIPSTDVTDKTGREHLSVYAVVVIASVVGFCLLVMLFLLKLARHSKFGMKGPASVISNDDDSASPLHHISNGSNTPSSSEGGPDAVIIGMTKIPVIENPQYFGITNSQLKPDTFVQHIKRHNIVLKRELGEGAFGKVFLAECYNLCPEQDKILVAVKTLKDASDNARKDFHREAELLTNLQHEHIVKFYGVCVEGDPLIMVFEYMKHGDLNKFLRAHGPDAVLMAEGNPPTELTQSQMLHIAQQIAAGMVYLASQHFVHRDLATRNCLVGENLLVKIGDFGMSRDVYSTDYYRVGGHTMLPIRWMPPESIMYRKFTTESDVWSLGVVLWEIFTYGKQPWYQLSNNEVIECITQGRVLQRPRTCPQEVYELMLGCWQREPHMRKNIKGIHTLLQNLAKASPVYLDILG
# UniProt Q96KB5: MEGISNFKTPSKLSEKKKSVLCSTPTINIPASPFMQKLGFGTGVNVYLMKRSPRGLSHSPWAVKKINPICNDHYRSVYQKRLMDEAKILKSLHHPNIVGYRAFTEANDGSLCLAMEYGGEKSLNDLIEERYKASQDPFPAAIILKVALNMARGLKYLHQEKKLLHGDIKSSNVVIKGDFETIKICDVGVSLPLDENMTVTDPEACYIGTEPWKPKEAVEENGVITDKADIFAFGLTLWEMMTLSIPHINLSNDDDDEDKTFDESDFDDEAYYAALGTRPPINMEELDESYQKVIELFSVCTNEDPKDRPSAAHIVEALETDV
# UniProt P09619, whole entry: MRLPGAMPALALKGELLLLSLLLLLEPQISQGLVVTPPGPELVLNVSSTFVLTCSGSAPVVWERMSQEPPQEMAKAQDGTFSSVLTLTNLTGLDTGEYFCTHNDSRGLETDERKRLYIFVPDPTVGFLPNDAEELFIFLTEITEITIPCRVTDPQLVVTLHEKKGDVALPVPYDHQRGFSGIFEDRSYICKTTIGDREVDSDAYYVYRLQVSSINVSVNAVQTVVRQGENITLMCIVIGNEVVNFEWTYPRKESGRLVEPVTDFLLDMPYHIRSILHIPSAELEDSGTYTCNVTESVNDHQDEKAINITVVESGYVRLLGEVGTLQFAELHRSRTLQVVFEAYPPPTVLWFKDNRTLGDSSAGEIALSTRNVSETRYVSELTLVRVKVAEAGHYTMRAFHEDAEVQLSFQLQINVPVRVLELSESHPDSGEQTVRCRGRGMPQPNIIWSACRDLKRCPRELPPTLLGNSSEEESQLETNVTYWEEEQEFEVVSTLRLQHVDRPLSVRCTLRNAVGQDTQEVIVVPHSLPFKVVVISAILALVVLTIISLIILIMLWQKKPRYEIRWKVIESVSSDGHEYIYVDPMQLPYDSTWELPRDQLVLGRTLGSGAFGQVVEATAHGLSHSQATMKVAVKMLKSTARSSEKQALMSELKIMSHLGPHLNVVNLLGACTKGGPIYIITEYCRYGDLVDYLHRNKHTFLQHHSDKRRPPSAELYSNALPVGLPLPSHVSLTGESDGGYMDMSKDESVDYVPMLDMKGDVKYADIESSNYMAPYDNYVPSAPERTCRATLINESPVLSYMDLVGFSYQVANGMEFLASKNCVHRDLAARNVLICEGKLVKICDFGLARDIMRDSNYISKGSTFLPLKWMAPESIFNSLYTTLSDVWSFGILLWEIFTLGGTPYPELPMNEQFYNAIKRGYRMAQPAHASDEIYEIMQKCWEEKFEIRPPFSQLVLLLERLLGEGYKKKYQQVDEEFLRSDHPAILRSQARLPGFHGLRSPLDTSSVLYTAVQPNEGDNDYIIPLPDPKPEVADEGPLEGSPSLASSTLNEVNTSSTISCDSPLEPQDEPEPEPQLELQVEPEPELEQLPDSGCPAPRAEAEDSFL
# Counter-ions that a name gives are not always drawn. The list shows a part of the results. Hit calls seldom repeat between salt and free forms of one compound.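 Kinases were expressed as nanoluciferase fusions in K562 cells and luminescence was read every 4 h between 2 and 18 h as percent of control, DMSO set to 100% and a positive control to 0%. A time point counts as decreased when the signal drops significantly (2 sigma). The hit call is the authors' own, does not follow from the count of time points alone, and its rule is not shown.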
# Columns and labels:
# Assay in all cases: kinase-Nluc reporter destabilization hit call (1 = scored as downregulated) (binary); higher = compound decreases kinase abundance
# Details in all cases: K562; 2-18 h
# IRAK3 = IRAK3 (UniProt Q9Y616)
# JAK1 = JAK1 (UniProt P23458)
# LCK = LCK (UniProt P06239)
# LIMK1 = LIMK1 (UniProt P53667)
# LIMK2 = LIMK2 (UniProt P53671)
# LMTK2 = LMTK2 (UniProt Q8IWU2)
# LYN = LYN (UniProt P07948)
# MAP2K1 = MAP2K1 (UniProt Q02750)
# MAP2K2 = MAP2K2 (UniProt P36507)
# MAP4K2 = MAP4K2 (UniProt Q12851)
# MAPK1 = MAPK1 (UniProt P28482)
# MAPK4 = MAPK4 (UniProt P31152)
# MAPKAPK2 = MAPKAPK2 (UniProt P49137)
# MKNK1 = MKNK1 (UniProt Q9BUB5)
# NTRK2 = NTRK2 (UniProt Q16620)
# NTRK3 = NTRK3 (UniProt Q16288)
# PAK4 = PAK4 (UniProt O96013)
# PBK = PBK (UniProt Q96KB5)
# PDGFRB = PDGFRB (UniProt P09619)
# PDK1 = PDK1 (UniProt Q15118)
Structure (SMILES),kinase-Nluc reporter destabilization hit call (IRAK3),kinase-Nluc reporter destabilization hit call (JAK1),kinase-Nluc reporter destabilization hit call (LCK),kinase-Nluc reporter destabilization hit call (LIMK1),kinase-Nluc reporter destabilization hit call (LIMK2),kinase-Nluc reporter destabilization hit call (LMTK2),kinase-Nluc reporter destabilization hit call (LYN),kinase-Nluc reporter destabilization hit call (MAP2K1),kinase-Nluc reporter destabilization hit call (MAP2K2),kinase-Nluc reporter destabilization hit call (MAP4K2),kinase-Nluc reporter destabilization hit call (MAPK1),kinase-Nluc reporter destabilization hit call (MAPK4),kinase-Nluc reporter destabilization hit call (MAPKAPK2),kinase-Nluc reporter destabilization hit call (MKNK1),kinase-Nluc reporter destabilization hit call (NTRK2),kinase-Nluc reporter destabilization hit call (NTRK3),kinase-Nluc reporter destabilization hit call (PAK4),kinase-Nluc reporter destabilization hit call (PBK),kinase-Nluc reporter destabilization hit call (PDGFRB),kinase-Nluc reporter destabilization hit call (PDK1)
CC(=O)c1c(O)c(C)c(O)c(Cc2c(O)c3c(c(C(=O)/C=C/c4ccccc4)c2O)OC(C)(C)C=C3)c1O [Rottlerin] (2 µM),inactive: 0,inactive: 0,inactive: 0,inactive: 0,inactive: 0,inactive: 0,inactive: 0,inactive: 0,inactive: 0,inactive: 0,inactive: 0,inactive: 0,inactive: 0,inactive: 0,inactive: 0,inactive: 0,inactive: 0,inactive: 0,inactive: 0,inactive: 0
O=[N+]([O-])/C=C/c1ccc2c(c1)OCO2 (2.5 µM),inactive: 0,inactive: 0,inactive: 0,inactive: 0,inactive: 0,inactive: 0,inactive: 0,inactive: 0,inactive: 0,inactive: 0,inactive: 0,inactive: 0,inactive: 0,inactive: 0,inactive: 0,inactive: 0,inactive: 0,inactive: 0,inactive: 0,inactive: 0
COc1ccc2c(c1)[nH]c1c(C)nccc12 [Harmine] (10 µM),inactive: 0,inactive: 0,inactive: 0,inactive: 0,inactive: 0,inactive: 0,inactive: 0,inactive: 0,inactive: 0,inactive: 0,inactive: 0,inactive: 0,inactive: 0,inactive: 0,inactive: 0,inactive: 0,inactive: 0,inactive: 0,inactive: 0,inactive: 0
CCCS(=O)(=O)Nc1ccc(F)c(-n2cc(-c3cncnc3)c3nc(N(C)C4CCN(CC)CC4)ccc32)c1F (2 µM),inactive: 0,inactive: 0,inactive: 0,inactive: 0,inactive: 0,inactive: 0,inactive: 0,inactive: 0,inactive: 0,inactive: 0,inactive: 0,inactive: 0,inactive: 0,inactive: 0,inactive: 0,inactive: 0,inactive: 0,inactive: 0,inactive: 0,inactive: 0
CCCCCCCCCCCCCCCCOC[C@H](COP(=O)([O-])OCC[N+](C)(C)C)OC(C)=O (10 µM),inactive: 0,inactive: 0,inactive: 0,inactive: 0,inactive: 0,inactive: 0,inactive: 0,inactive: 0,inactive: 0,inactive: 0,inactive: 0,inactive: 0,inactive: 0,inactive: 0,inactive: 0,inactive: 0,inactive: 0,inactive: 0,inactive: 0,inactive: 0
N#CC(C#N)=NNc1cccc(Cl)c1 (2.5 µM),inactive: 0,inactive: 0,inactive: 0,inactive: 0,inactive: 0,inactive: 0,inactive: 0,inactive: 0,inactive: 0,inactive: 0,inactive: 0,inactive: 0,inactive: 0,inactive: 0,inactive: 0,inactive: 0,inactive: 0,inactive: 0,inactive: 0,inactive: 0
CN(C)C(=O)c1ccc(Cn2c(C(=O)O)cc3c(Br)cc(Sc4ccc(Cl)c(Cl)c4)cc32)cc1 [Rheb inhibitor NR1] (10 µM),inactive: 0,inactive: 0,inactive: 0,inactive: 0,inactive: 0,inactive: 0,inactive: 0,inactive: 0,inactive: 0,inactive: 0,inactive: 0,inactive: 0,inactive: 0,inactive: 0,–,inactive: 0,inactive: 0,inactive: 0,inactive: 0,inactive: 0
C=C[C@H]1CN2CC[C@]3(C(=O)Nc4ccccc43)[C@@H]2C[C@@H]1/C(=C\OC)C(=O)OC [Corynoxeine] (2 µM),inactive: 0,inactive: 0,inactive: 0,inactive: 0,inactive: 0,inactive: 0,inactive: 0,inactive: 0,inactive: 0,inactive: 0,inactive: 0,inactive: 0,inactive: 0,inactive: 0,inactive: 0,inactive: 0,inactive: 0,inactive: 0,inactive: 0,inactive: 0
C[C@H](Nc1ncnc2[nH]cnc12)c1nc2ccc(F)cc2c(=O)n1-c1ccccc1 [Acalisib] (10 µM),inactive: 0,inactive: 0,inactive: 0,inactive: 0,inactive: 0,inactive: 0,inactive: 0,inactive: 0,inactive: 0,inactive: 0,inactive: 0,inactive: 0,inactive: 0,inactive: 0,–,inactive: 0,inactive: 0,inactive: 0,inactive: 0,inactive: 0
C[C@H]1CC[C@]2(NC1)O[C@H]1C[C@H]3[C@@H]4CC[C@H]5C[C@@H](O[C@@H]6O[C@H](CO)[C@H](O[C@@H]7O[C@H](CO)[C@@H](O)[C@H](O[C@@H]8OC[C@@H](O)[C@H](O)[C@H]8O)[C@H]7O[C@@H]7O[C@H](CO)[C@@H](O)[C@H](O)[C@H]7O)[C@H](O)[C@H]6O)CC[C@]5(C)[C@H]4CC[C@]3(C)[C@H]1[C@@H]2C [Tomatine] (2.5 µM),inactive: 0,inactive: 0,inactive: 0,inactive: 0,active: 1,inactive: 0,inactive: 0,inactive: 0,inactive: 0,inactive: 0,inactive: 0,inactive: 0,inactive: 0,inactive: 0,inactive: 0,active: 1,inactive: 0,inactive: 0,inactive: 0,inactive: 0
COc1ccc2c(c[n+](C)c3c4cc5c(cc4ccc23)OCO5)c1OC [Chelerythrine (chloride)] (10 µM),inactive: 0,inactive: 0,inactive: 0,inactive: 0,active: 1,inactive: 0,inactive: 0,inactive: 0,inactive: 0,inactive: 0,inactive: 0,inactive: 0,inactive: 0,inactive: 0,inactive: 0,inactive: 0,inactive: 0,inactive: 0,inactive: 0,inactive: 0
C[C@H]1CC[C@]2(NC1)O[C@H]1C[C@H]3[C@@H]4CC[C@H]5C[C@@H](O)CC[C@]5(C)[C@H]4CC[C@]3(C)[C@H]1[C@@H]2C [Tomatidine (hydrochloride)] (10 µM),inactive: 0,inactive: 0,inactive: 0,inactive: 0,inactive: 0,inactive: 0,inactive: 0,inactive: 0,inactive: 0,inactive: 0,inactive: 0,inactive: 0,–,inactive: 0,inactive: 0,inactive: 0,inactive: 0,inactive: 0,inactive: 0,inactive: 0
C=CC(=O)N[C@H]1C=C(C)c2c(-c3cnc4ccccc4c3)c3c(N)ncnc3n2C1 (10 µM),inactive: 0,inactive: 0,inactive: 0,inactive: 0,inactive: 0,inactive: 0,inactive: 0,inactive: 0,inactive: 0,inactive: 0,inactive: 0,inactive: 0,inactive: 0,inactive: 0,inactive: 0,inactive: 0,inactive: 0,inactive: 0,inactive: 0,inactive: 0
C/C=C(/C)C(=O)O[C@H]1[C@@H]2[C@H](C)C(=O)O[C@@H]2C[C@@H](C)[C@@H]2C=CC(=O)[C@]21C [Brevilin A] (2.5 µM),inactive: 0,inactive: 0,inactive: 0,inactive: 0,inactive: 0,inactive: 0,inactive: 0,inactive: 0,inactive: 0,inactive: 0,inactive: 0,inactive: 0,inactive: 0,inactive: 0,inactive: 0,inactive: 0,inactive: 0,inactive: 0,inactive: 0,inactive: 0
COc1ccc(/C=C/c2cc(OC)c(OC)c(OC)c2)cc1 (2.5 µM),inactive: 0,inactive: 0,inactive: 0,inactive: 0,inactive: 0,inactive: 0,inactive: 0,inactive: 0,inactive: 0,inactive: 0,inactive: 0,inactive: 0,inactive: 0,inactive: 0,–,inactive: 0,inactive: 0,inactive: 0,inactive: 0,inactive: 0
CC(=O)O[C@H]1[C@H]2[C@@H](OC(=O)Cc3ccccc3)[C@@H](C)C[C@]2(OC(C)=O)C(=O)/C(C)=C/[C@@H]2[C@H](CC[C@@]13CO3)C2(C)C [Euphorbiasteroid] (10 µM),inactive: 0,inactive: 0,inactive: 0,inactive: 0,inactive: 0,inactive: 0,inactive: 0,inactive: 0,inactive: 0,inactive: 0,inactive: 0,inactive: 0,inactive: 0,inactive: 0,inactive: 0,inactive: 0,inactive: 0,inactive: 0,inactive: 0,inactive: 0
C[C@H]1CC[C@]2(NC1)O[C@H]1C[C@H]3[C@@H]4CC[C@H]5C[C@@H](O)CC[C@]5(C)[C@H]4CC[C@]3(C)[C@H]1[C@@H]2C [Tomatidine] (2 µM),inactive: 0,inactive: 0,inactive: 0,inactive: 0,inactive: 0,inactive: 0,inactive: 0,inactive: 0,inactive: 0,inactive: 0,inactive: 0,inactive: 0,–,inactive: 0,inactive: 0,inactive: 0,inactive: 0,inactive: 0,inactive: 0,inactive: 0
O=c1[nH]c2ccccc2n1C1CCN(Cc2ccc(-c3[nH]c4cc5ncnc5cc4nc3-c3ccccc3)cc2)CC1 [AKT inhibitor VIII] (2.5 µM),inactive: 0,inactive: 0,inactive: 0,inactive: 0,inactive: 0,inactive: 0,inactive: 0,inactive: 0,inactive: 0,inactive: 0,inactive: 0,inactive: 0,inactive: 0,inactive: 0,inactive: 0,inactive: 0,inactive: 0,inactive: 0,inactive: 0,inactive: 0
C=CC(=O)Nc1ccc2[nH]c(=O)n(C3CCN(Cc4ccc(-c5nc6cc[nH]c(=O)c6cc5-c5ccccc5)cc4)CC3)c2c1 [Borussertib] (10 µM),inactive: 0,inactive: 0,inactive: 0,inactive: 0,inactive: 0,inactive: 0,inactive: 0,inactive: 0,inactive: 0,inactive: 0,inactive: 0,inactive: 0,inactive: 0,inactive: 0,inactive: 0,inactive: 0,inactive: 0,inactive: 0,inactive: 0,inactive: 0
CC(=O)Oc1ccc(/C=C/c2cc(OC(C)=O)cc(OC(C)=O)c2)cc1 [Triacetylresveratrol] (10 µM),inactive: 0,inactive: 0,inactive: 0,inactive: 0,inactive: 0,inactive: 0,inactive: 0,inactive: 0,inactive: 0,inactive: 0,inactive: 0,inactive: 0,inactive: 0,inactive: 0,inactive: 0,inactive: 0,inactive: 0,inactive: 0,inactive: 0,inactive: 0
O=Cc1cn(Cc2ccc(Cl)cc2)c2ccccc12 [Oncrasin-1] (10 µM),inactive: 0,inactive: 0,inactive: 0,inactive: 0,inactive: 0,inactive: 0,inactive: 0,inactive: 0,inactive: 0,inactive: 0,inactive: 0,inactive: 0,inactive: 0,inactive: 0,inactive: 0,inactive: 0,inactive: 0,inactive: 0,inactive: 0,inactive: 0
C[S+]([O-])/C=C/CCN=C=S (stereo not given) [Sulforaphene] (10 µM),inactive: 0,inactive: 0,inactive: 0,inactive: 0,inactive: 0,inactive: 0,inactive: 0,inactive: 0,inactive: 0,inactive: 0,inactive: 0,inactive: 0,inactive: 0,inactive: 0,inactive: 0,inactive: 0,inactive: 0,inactive: 0,inactive: 0,inactive: 0

# Taken from above:
# Entry of C[S+]([O-])/C=C/CCN=C=S (stereo not given) [Sulforaphene] (10 µM) under kinase-Nluc reporter destabilization hit call (LMTK2): inactive: 0
# Entry of CCCCCCCCCCCCCCCCOC[C@H](COP(=O)([O-])OCC[N+](C)(C)C)OC(C)=O (10 µM) under kinase-Nluc reporter destabilization hit call (MAPK4): inactive: 0
